Measurements reported in PubChem BioAssay AID686943 (Drosophila RNAi Screening Center, 2013).
Screen: 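Knockdowns that increase or decrease active ERK after insulin receptor stimulation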 (primary screen). Cell system: Drosophila S2R+ haemocyte-like cells expressing YFP-tagged ERK (Rolled). Reagent: long dsRNA against Drosophila genes. Conditions: insulin stimulation versus unstimulated cells; dose and duration not given. Measured: 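Per-plate z-scores of phospho-ERK immunostaining normalised to YFP-tagged ERK, measured with and without insulin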. Reading the numbers: replicate 1, z-score of dpERK with insulin: higher = more active ERK per ERK-YFP after insulin.
The screen tested about 23,000 reagents; shown is an unselected part of those that have a named target and a result. 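Extra replicates exist only for a retested subset of genes; insulin dose and duration not given; both raised and lowered dpERK matter.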 A plus sign joins genes that one reagent is predicted to hit. Further read-outs or replicates are left out here. Not stated in the record: the amount of reagent, the time to read-out.

gene knocked down | DRSC id | replicate 1, z-score of dpERK with insulin
CG4168 | DRSC01446 | 0.68
CG4168 | DRSC01447 | 1.23
CG4168 | DRSC01933 | 0.47
CG4168 | DRSC21319 | 0.63
CG4168 | DRSC22789 | -0.11
ebd1 (earthbound 1) | DRSC08565 | 0.67
CG14120 | DRSC10124 | 0.09
Ttc7 (Tetratricopeptide repeat domain 7) | DRSC04836 | -0.36
CG6693 | DRSC16097 | 0.55
Xxylt (Xyloside xylosyltransferase) | DRSC04107 | 0.19
Targ3 (Terminal ADP-ribose protein glycohydrolase 3) | DRSC11471 | -0.71
CG2201 | DRSC03721 | 0.22
Ttc26 (Tetratricopeptide repeat domain 26) | DRSC15591 | -0.73
sigmar (salivary glands marred) | DRSC04449 | 0.98
Hus1-like | DRSC12353 | 0.52
r2d2 | DRSC03014 | 0.59
su(f) (suppressor of forked) | DRSC20907 | 1.79
CG2765 | DRSC04315 | -0.25
Pcyt1 (Phosphocholine cytidylyltransferase 1) | DRSC08157 | -1.84
Ho (Heme oxygenase) | DRSC14939 | 0.14
CG42729 | DRSC10236 | -0.44
CG7841 | DRSC10922 | -1.72
CG13921 | DRSC08390 | 0.06
tHMG1 (testis-enriched HMG-box-containing protein 1) | DRSC16181 | 0.95
CG4988 | DRSC02800 | -1.81
crn (crooked neck) | DRSC18184 | 2.16
crn (crooked neck) | DRSC18185 | 1.21
crn (crooked neck) | DRSC18755 | 0.43
lncRNA:CR31386 (long non-coding RNA:CR31386) | DRSC22769 | -1.11
Hexo2 (Hexosaminidase 2) | DRSC18671 | 1.6
CG18528 | DRSC15340 | 0.17
CG8329 | DRSC10978 | 0.14
CG11755 | DRSC14374 | 0.25
TwdlD (TweedleD) | DRSC14738 | 0.29
mbf1 (multiprotein bridging factor 1) | DRSC11365 | 0.74
CG15247 | DRSC17976 | 0.52
Sirt7 (Sirtuin 7) | DRSC14294 | -0.48
CG15877 | DRSC08485 | 0.47
sotv + CG10731 | DRSC05930 | -0.15
sotv + CG10731 | DRSC05997 | 0.35

Not a retest: 5 of the entries above.
gene knocked down | DRSC id | replicate 1, z-score of dpERK with insulin
Ttc7 (Tetratricopeptide repeat domain 7) | DRSC04836 | -0.36
CG6693 | DRSC16097 | 0.55
Xxylt (Xyloside xylosyltransferase) | DRSC04107 | 0.19
Targ3 (Terminal ADP-ribose protein glycohydrolase 3) | DRSC11471 | -0.71
CG2201 | DRSC03721 | 0.22
